HELM strings list residues between dots; [ac] is acetyl, [am] amide, other brackets name non-standard units.
Assay: general procedure: Boc solid-phase peptide synthesis; benzhydrylamine (BHA) resin, copolymer of styrene-1% divinylbenzene (Beckman); symmetrical anhydrides of Boc-amino acids
Conditions: for step yield: late stage modification step; for isolated yield: whole synthesis

Substance | step yield | isolated yield
A-Tyr(SO3 H)-Nle-Gly-Trp-Nle-Thr(SO3 H)-N-methyl-Phe-NH2 | 66% | –
Ac-Tyr(SO3 H)-Nle-Gly-Trp-Nle-Thr(SO3 H)-N-methyl-Phe-NH2 | – | 31%
PEPTIDE1{[ac].[sY].M.A.W.M.[sT].[meF].[am]}$$$$V2.0 | 95% | –
PEPTIDE1{[ac].[sY].M.A.[fW].M.[sT].[meF].[am]}$$$$V2.0 | 70% | 6.6%
PEPTIDE1{[ac].[sY].M.G.W.M.[sT].[meF].[am]}$$$$V2.0 | 90% | –
PEPTIDE1{[ac].[sY].M.G.[fW].M.[sT].[meF].[am]}$$$$V2.0 | 43% | 16.1%
PEPTIDE1{[ac].[sY].[Nle].[dA].W.M.[sT].[meF].[am]}$$$$V2.0 | 93% | –
PEPTIDE1{[ac].[sY].[Nle].[dA].[fW].M.[sT].[meF].[am]}$$$$V2.0 | 70% | 5.36%

— patent US5013722A (Hoffmann-LaRoche Inc., priority 1989, dated 1991)
